Test results from US12521402B2, “Biomarker and drug combinations for heart failure prediction” (Endothelium Scanning Nanotechnology Limited, priority 2022, dated 2026).

Assay: Saliva proteomics: biomarker quantification by mass spectrometry SWATH in participants at risk of heart failure vs controls
Design: species or system human
Conditions: for AtRisk average: 'at risk' of heart failure group mean; for Control average: control group mean
[1] = differential expression (fold) between control and at-risk averages, saliva
[2] = saliva, mass spectrometry SWATH, 20 samples
[3] = differential expression (fold) control vs 'at risk', printed as larger/smaller average whatever the direction
[4] = saliva, mass spectrometry SWATH quantification

| Molecule | Control vs Risk [1] | AtRisk average [2] | Control average [2] | Control vs Risk [3] | AtRisk average [4] | Control average [4] |
| --- | --- | --- | --- | --- | --- | --- |
| CEAM1 (protein, UniProt P13688 35-526, looked up) Cell adhesion molecule CEACAM1: QLTTESMPFNVAEGKEVLLLVHNLPQQLFGYSWYKGERVDGNRQIVGYAIGTQQATPGPANSGRETIYPNASLLIQNVTQNDTGFYTLQVIKSDLVNEEATGQFHVYPELPKPSISSNNSNPVEDKDAVAFTCEPETQDTTYLWWINNQSLPVSPRLQLSNGNRTLTLLSVTRNDTGPYECEIQNPVSANRSDPVTLNVTYGPDTPTISPSDTYYRPGANLSLSCYAASNPPAQYSWLINGTFQQSTQELFIPNITVNNSGSYTCHANNSVTGCNRTTVKTIIVTELSPVVAKPQIKASKTTVTGDKDSVNLTCSTNDTGISIRWFFKNQSLPSSERMKLSQGNTTLSINPVKREDAGTYWCEVFNPISKNQSDPIMLNVNYNALPQENGLSPGAIAGIVIGVVALVALIAVALACFLHFGKTGRASDQRDLTEHKPSVSNHTQDHSNDPPNKMNEVTYSTLNFEAQQPTQPTSASPSLTATEIIYSEVKKQ | 2.85 | 364,656 ng/ml | 127,906 ng/ml |  |  |  |
| JUPI1 (protein, UniProt Q9UK76 1-154, looked up) Jupiter microtubule …: MTTTTTFKGVDPNSRNSSRVLRPPGGGSNFSLGFDEPTEQPVRKNKMASNIFGTPEENQASWAKSAGAKSSGGREDLESSGLQRRNSSEASSGDFLDLKGEGDIHENVDTDLPGSLGQSEEKPVPAAPVPSPVAPAPVPSRRNPPGGKSSLVLG | 1.54 | 1,070,216 ng/ml | 695,806 ng/ml |  |  |  |
| PRELP (protein, UniProt P51888 21-382, looked up) Prolargin: QPTRRPRPGTGPGRRPRPRPRPTPSFPQPDEPAEPTDLPPPLPPGPPSIFPDCPRECYCPPDFPSALYCDSRNLRKVPVIPPRIHYLYLQNNFITELPVESFQNATGLRWINLDNNRIRKIDQRVLEKLPGLVFLYMEKNQLEEVPSALPRNLEQLRLSQNHISRIPPGVFSKLENLLLLDLQHNRLSDGVFKPDTFHGLKNLMQLNLAHNILRKMPPRVPTAIHQLYLDSNKIETIPNGYFKSFPNLAFIRLNYNKLTDRGLPKNSFNISNLLVLHLSHNRISSVPAINNRLEHLYLNNNSIEKINGTQICPNDLVAFHDFSSDLENVPHLRYLRLDGNYLKPPIPLDLMMCFRLLQSVVI | 1.49 | 74,266 ng/ml | 49,932 ng/ml |  |  |  |
| ACBP (protein, UniProt P07108 2-87, looked up) Acyl-CoA-binding protein: SQAEFEKAAEEVRHLKTKPSDEEMLFIYGHYKQATVGDINTERPGMLDFTGKAKWDAWNELKGTSKEDAMKAYINKVEELKKKYGI |  |  |  | 4.25 | 5,811,090 ng/ml | 1,366,139 ng/ml |
| LEG1H (protein, UniProt Q6P5S2 21-330, looked up) Protein LEG1 homolog: GTSNLSETEPPLWKESPGQLSDYRVENSMYIINPWVYLERMGMYKIILNQTARYFAKFAPDNEQNILWGLPLQYGWQYRTGRLADPTRRTNCGYESGDHMCISVDSWWADLNYFLSSLPFLAAVDSGVMGISSDQVRLLPPPKNERKFCYDVSSCRSSFPETMNKWNTFYQYLQSPFSKFDDLLKYLWAAHTSTLADNIKSFEDRYDYYSKAEAHFERSWVLAVDHLAAVLFPTTLIRSYKFQKGMPPRILLNTDVAPFISDFTAFQNVVLVLLNMLDNVDKSIGYLCTEKSNVYRDHSESSSRSYGNNS |  |  |  | 3.80 | 7,884,593 ng/ml | 29,932,578 ng/ml |
| SUGP2 (protein, UniProt Q8IX01 1-1082, looked up) SURP and G-patch …: MAARRITQETFDAVLQEKAKRYHMDASGEAVSETLQFKAQDLLRAVPRSRAEMYDDVHSDGRYSLSGSVAHSRDAGREGLRSDVFPGPSFRSSNPSISDDSYFRKECGRDLEFSHSDSRDQVIGHRKLGHFRSQDWKFALRGSWEQDFGHPVSQESSWSQEYSFGPSAVLGDFGSSRLIEKECLEKESRDYDVDHPGEADSVLRGGSQVQARGRALNIVDQEGSLLGKGETQGLLTAKGGVGKLVTLRNVSTKKIPTVNRITPKTQGTNQIQKNTPSPDVTLGTNPGTEDIQFPIQKIPLGLDLKNLRLPRRKMSFDIIDKSDVFSRFGIEIIKWAGFHTIKDDIKFSQLFQTLFELETETCAKMLASFKCSLKPEHRDFCFFTIKFLKHSALKTPRVDNEFLNMLLDKGAVKTKNCFFEIIKPFDKYIMRLQDRLLKSVTPLLMACNAYELSVKMKTLSNPLDLALALETTNSLCRKSLALLGQTFSLASSFRQEKILEAVGLQDIAPSPAAFPNFEDSTLFGREYIDHLKAWLVSSGCPLQVKKAEPEPMREEEKMIPPTKPEIQAKAPSSLSDAVPQRADHRVVGTIDQLVKRVIEGSLSPKERTLLKEDPAYWFLSDENSLEYKYYKLKLAEMQRMSENLRGADQKPTSADCAVRAMLYSRAVRNLKKKLLPWQRRGLLRAQGLRGWKARRATTGTQTLLSSGTRLKHHGRQAPGLSQAKPSLPDRNDAAKDCPPDPVGPSPQDPSLEASGPSPKPAGVDISEAPQTSSPCPSADIDMKTMETAEKLARFVAQVGPEIEQFSIENSTDNPDLWFLHDQNSSAFKFYRKKVFELCPSICFTSSPHNLHTGGGDTTGSQESPVDLMEGEAEFEDEPPPREAELESPEVMPEEEDEDDEDGGEEAPAPGGAGKSEGSTPADGLPGEAAEDDLAGAPALSQASSGTCFPRKRISSKSLKVGMIPAPKRVCLIQEPKVHEPVRIAYDRPRGRPMSKKKKPKDLDFAQQKLTDKNLGFQMLQKMGWKEGHGLGSLGKGIREPVSVGTPSEGEGLGADGQEHKEDTFDVFRQRMMQMYRHKRANK |  |  |  | 3.78 | 2,852 ng/ml | 10,789 ng/ml |
| ZYX (protein, UniProt Q15942 2-572, looked up) Zyxin: AAPRPSPAISVSVSAPAFYAPQKKFGPVVAPKPKVNPFRPGDSEPPPAPGAQRAQMGRVGEIPPPPPEDFPLPPPPLAGDGDDAEGALGGAFPPPPPPIEESFPPAPLEEEIFPSPPPPPEEEGGPEAPIPPPPQPREKVSSIDLEIDSLSSLLDDMTKNDPFKARVSSGYVPPPVATPFSSKSSTKPAAGGTAPLPPWKSPSSSQPLPQVPAPAQSQTQFHVQPQPQPKPQVQLHVQSQTQPVSLANTQPRGPPASSPAPAPKFSPVTPKFTPVASKFSPGAPGGSGSQPNQKLGHPEALSAGTGSPQPPSFTYAQQREKPRVQEKQHPVPPPAQNQNQVRSPGAPGPLTLKEVEELEQLTQQLMQDMEHPQRQNVAVNELCGRCHQPLARAQPAVRALGQLFHIACFTCHQCAQQLQGQQFYSLEGAPYCEGCYTDTLEKCNTCGEPITDRMLRATGKAYHPHCFTCVVCARPLEGTSFIVDQANRPHCVPDYHKQYAPRCSVCSEPIMPEPGRDETVRVVALDKNFHMKCYKCEDCGKPLSIEADDNGCFPLDGHVLCRKCHTARAQT |  |  |  | 3.47 | 617,222 ng/ml | 2,143,957 ng/ml |
| PLP2 (protein, UniProt Q04941 1-152, looked up) Proteolipid protein 2: MADSERLSAPGCWAACTNFSRTRKGILLFAEIILCLVILICFSASTPGYSSLSVIEMILAAIFFVVYMCDLHTKIPFINWPWSDFFRTLIAAILYLITSIVVLVERGNHSKIVAGVLGLIATCLFGYDAYVTFPVRQPRHTAAPTDPADGPV |  |  |  | 3.45 | 40,439 ng/ml | 139,383 ng/ml |
| LV310 (protein, UniProt A0A075B6K4 20-115, looked up) Immunoglobulin lambda …: SYELTQPPSVSVSPGQTARITCSGDALPKKYAYWYQQKSGQAPVLVIYEDSKRPSGIPERFSGSSSGTMATLTISGAQVEDEADYYCYSTDSSGNH |  |  |  | 3.39 | 385,001 ng/ml | 1,306,454 ng/ml |
| AMPN (protein, UniProt P15144 2-967, looked up) Aminopeptidase N: AKGFYISKSLGILGILLGVAAVCTIIALSVVYSQEKNKNANSSPVASTTPSASATTNPASATTLDQSKAWNRYRLPNTLKPDSYRVTLRPYLTPNDRGLYVFKGSSTVRFTCKEATDVIIIHSKKLNYTLSQGHRVVLRGVGGSQPPDIDKTELVEPTEYLVVHLKGSLVKDSQYEMDSEFEGELADDLAGFYRSEYMEGNVRKVVATTQMQAADARKSFPCFDEPAMKAEFNITLIHPKDLTALSNMLPKGPSTPLPEDPNWNVTEFHTTPKMSTYLLAFIVSEFDYVEKQASNGVLIRIWARPSAIAAGHGDYALNVTGPILNFFAGHYDTPYPLPKSDQIGLPDFNAGAMENWGLVTYRENSLLFDPLSSSSSNKERVVTVIAHELAHQWFGNLVTIEWWNDLWLNEGFASYVEYLGADYAEPTWNLKDLMVLNDVYRVMAVDALASSHPLSTPASEINTPAQISELFDAISYSKGASVLRMLSSFLSEDVFKQGLASYLHTFAYQNTIYLNLWDHLQEAVNNRSIQLPTTVRDIMNRWTLQMGFPVITVDTSTGTLSQEHFLLDPDSNVTRPSEFNYVWIVPITSIRDGRQQQDYWLIDVRAQNDLFSTSGNEWVLLNLNVTGYYRVNYDEENWRKIQTQLQRDHSAIPVINRAQIINDAFNLASAHKVPVTLALNNTLFLIEERQYMPWEAALSSLSYFKLMFDRSEVYGPMKNYLKKQVTPLFIHFRNNTNNWREIPENLMDQYSEVNAISTACSNGVPECEEMVSGLFKQWMENPNNNPIHPNLRSTVYCNAIAQGGEEEWDFAWEQFRNATLVNEADKLRAALACSKELWILNRYLSYTLNPDLIRKQDATSTIISITNNVIGQGLVWDFVQSNWKKLFNDYGGGSFSFSNLIQAVTRRFSTEYELQQLEQFKKDNEETGFGSGTRALEQALEKTKANIKWVKENKEVVLQWFTENSK |  |  |  | 3.33 | 16,886 ng/ml | 56,159 ng/ml |
| LFNG (protein, UniProt Q8NES3 1-379, looked up) Beta-1,3-N-acetylglucosaminylt …: MLKRCGRRLLLALAGALLACLLVLTADPPPPPLPAERGRRALRSLAGPAGAAPAPGLGAAAAAPGALVRDVHSLSEYFSLLTRARRDAGPPPGAAPRPADGHPRPLAEPLAPRDVFIAVKTTKKFHRARLDLLLETWISRHKEMTFIFTDGEDEALARHTGNVVITNCSAAHSRQALSCKMAVEYDRFIESGRKWFCHVDDDNYVNLRALLRLLASYPHTRDVYVGKPSLDRPIQAMERVSENKVRPVHFWFATGGAGFCISRGLALKMSPWASGGHFMNTAERIRLPDDCTIGYIVEALLGVPLIRSGLFHSHLENLQQVPTSELHEQVTLSYGMFENKRNAVHVKGPFSVEADPSRFRSIHCHLYPDTPWCPRTAIF |  |  |  | 3.25 | 65,302 ng/ml | 212,321 ng/ml |
